From the supplement of paper PMC8728848
Some of the results follow.

Key:
Test in all cases: glycan array binding signal (z-score within array); higher = stronger binding
Settings in all cases: glycan notation: IUPAC condensed, linker removed
[1] = molecular target: Fuc(a1-2)Gal
Summary of the method: (§1)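 From the Consortium for Functional Glycomics database, 3228 arrays were curated, keeping only those whose protein sequence was available. Binding is given as a within-array Z-score averaged across arrays sharing a protein sequence and across linkers. Negative Z-scores can be read as non-binding.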

[2] = molecular target: Fuc(a1-2)Gal(b1-3)GalNAc
Summary of the method: as §1

[3] = molecular target: Fuc(a1-2)Gal(b1-3)GalNAc(a1-3)[Fuc(a1-2)]Gal(b1-4)Glc
Summary of the method: as §1

[4] = molecular target: Fuc(a1-2)Gal(b1-3)GalNAc(a1-3)[Fuc(a1-2)]Gal(b1-4)GlcNAc
Summary of the method: as §1

[5] = molecular target: Fuc(a1-2)Gal(b1-3)GalNAc(b1-3)Gal
Summary of the method: as §1

[6] = molecular target: Fuc(a1-2)Gal(b1-3)GalNAc(b1-3)Gal(a1-4)Gal(b1-4)Glc
Summary of the method: as §1

[7] = molecular target: Fuc(a1-2)Gal(b1-3)GalNAc(b1-4)[Neu5Ac(a2-3)]Gal(b1-4)Glc
Summary of the method: as §1

[8] = molecular target: Fuc(a1-2)Gal(b1-3)GlcNAc
Summary of the method: as §1

[9] = molecular target: Fuc(a1-2)Gal(b1-3)GlcNAc(b1-2)Man(a1-3)[Fuc(a1-2)Gal(b1-3)GlcNAc(b1-2)Man(a1-6)]Man(b1-4)GlcNAc(b1-4)GlcNAc
Summary of the method: as §1

[10] = molecular target: Fuc(a1-2)Gal(b1-3)GlcNAc(b1-2)Man(a1-3)[Fuc(a1-2)Gal(b1-3)GlcNAc(b1-2)Man(a1-6)]Man(b1-4)GlcNAc(b1-4)[Fuc(a1-6)]GlcNAc
Summary of the method: as §1

[11] = molecular target: Fuc(a1-2)Gal(b1-3)GlcNAc(b1-3)Gal(b1-4)Glc
Summary of the method: as §1

[12] = molecular target: Fuc(a1-2)Gal(b1-3)GlcNAc(b1-3)GalNAc
Summary of the method: as §1

[13] = molecular target: Fuc(a1-2)Gal(b1-3)GlcNAc(b1-3)[Fuc(a1-2)Gal(b1-3)GlcNAc(b1-6)]GalNAc
Summary of the method: as §1

[14] = molecular target: Fuc(a1-2)Gal(b1-3)GlcNAc(b1-3)[Gal(b1-4)GlcNAc(b1-6)]Gal(b1-4)Glc
Summary of the method: as §1

[15] = molecular target: Fuc(a1-2)Gal(b1-3)GlcNAc(b1-3)[Neu5Ac(a2-6)Gal(b1-4)GlcNAc(b1-6)]Gal(b1-4)Glc
Summary of the method: as §1

[16] = molecular target: Fuc(a1-2)Gal(b1-3)GlcNAc6S
Summary of the method: as §1

[17] = molecular target: Fuc(a1-2)Gal(b1-3)[Fuc(a1-4)]GlcNAc
Summary of the method: as §1

[18] = molecular target: Fuc(a1-2)Gal(b1-3)[Fuc(a1-4)]GlcNAc(b1-2)Man(a1-3)[Fuc(a1-2)Gal(b1-3)[Fuc(a1-4)]GlcNAc(b1-2)Man(a1-3)]Man(b1-4)GlcNAc(b1-4)GlcNAc
Summary of the method: as §1

[19] = molecular target: Fuc(a1-2)Gal(b1-3)[Fuc(a1-4)]GlcNAc(b1-2)Man(a1-3)[Fuc(a1-2)Gal(b1-3)[Fuc(a1-4)]GlcNAc(b1-2)Man(a1-6)]Man(b1-4)GlcNAc(b1-4)[Fuc(a1-6)]GlcNAc(b1-4)[Fuc(a1-6)]GlcNAc
Summary of the method: as §1

[20] = molecular target: Fuc(a1-2)Gal(b1-3)[Fuc(a1-4)]GlcNAc(b1-3)[Fuc(a1-3)[Gal(b1-4)]GlcNAc(b1-6)]Gal(b1-4)Glc
Summary of the method: as §1

[21] = molecular target: Fuc(a1-2)Gal(b1-3)[Fuc(a1-4)]GlcNAc(b1-3)[Gal(b1-4)GlcNAc(b1-6)]Gal(b1-4)Glc
Summary of the method: as §1

[22] = molecular target: Fuc(a1-2)Gal(b1-4)Glc
Summary of the method: as §1

[23] = molecular target: Fuc(a1-2)Gal(b1-4)Glc6S
Summary of the method: as §1

[24] = molecular target: Fuc(a1-2)Gal(b1-4)GlcNAc
Summary of the method: as §1

[25] = molecular target: Fuc(a1-2)Gal(b1-4)GlcNAc(b1-2)Man
Summary of the method: as §1

[26] = molecular target: Fuc(a1-2)Gal(b1-4)GlcNAc(b1-2)Man(a1-3)[Fuc(a1-2)Gal(b1-4)GlcNAc(b1-2)Man(a1-6)]Man(b1-4)GlcNAc(b1-4)GlcNAc
Summary of the method: as §1

[27] = molecular target: Fuc(a1-2)Gal(b1-4)GlcNAc(b1-2)Man(a1-3)[Fuc(a1-2)Gal(b1-4)GlcNAc(b1-2)Man(a1-6)]Man(b1-4)GlcNAc(b1-4)[Fuc(a1-6)]GlcNAc
Summary of the method: as §1

[28] = molecular target: Fuc(a1-2)Gal(b1-4)GlcNAc(b1-2)[Fuc(a1-2)Gal(b1-4)GlcNAc(b1-4)]Man(a1-3)[Fuc(a1-2)Gal(b1-4)GlcNAc(b1-2)Man(a1-6)]Man(b1-4)GlcNAc(b1-4)GlcNAc
Summary of the method: as §1

[29] = molecular target: Fuc(a1-2)Gal(b1-4)GlcNAc(b1-3)Gal(b1-4)GlcNAc
Summary of the method: as §1

[30] = molecular target: Fuc(a1-2)Gal(b1-4)GlcNAc(b1-3)Gal(b1-4)GlcNAc(b1-2)Man(a1-3)[Fuc(a1-2)Gal(b1-4)GlcNAc(b1-3)Gal(b1-4)GlcNAc(b1-2)Man(a1-6)]Man(b1-4)GlcNAc(b1-4)GlcNAc
Summary of the method: as §1

B1: Epa3to2 (Candida glabrata) (protein)
chain: MGSSHHHHHHSSGLVPRGSHMKRELSSQNPFGYPIGCSPQDVAIIPGLTMELYSYPIVSGTPPNCYDASYVDPEYPRTGYLKRKMVGKSTGVTGNLNYKYSVEKACMVKYGNLPAGYNYNEPLTVSNFTMILYGYFKAQTTGLHTFFVNADDLLYINFGAGNAFDCCKREDSKTKLGEYVAYDIWHVDSSKNKVSLFLEKDLYYPIRMFFNNRDNNSSLDLSFSVNGATDQISDFSGYLYSVPDQPDTCPAHIGYDTTCR
glycan array binding signal (z-score) [1]: -1.2
glycan array binding signal (z-score) [2]: -0.585
glycan array binding signal (z-score) [3]: -1.29
glycan array binding signal (z-score) [4]: -1.02
glycan array binding signal (z-score) [5]: 3.03
glycan array binding signal (z-score) [6]: 0.739
glycan array binding signal (z-score) [7]: 0.301
glycan array binding signal (z-score) [8]: -0.953
glycan array binding signal (z-score) [9]: 1.32
glycan array binding signal (z-score) [10]: 0.176
glycan array binding signal (z-score) [11]: -0.162
glycan array binding signal (z-score) [12]: -0.312
glycan array binding signal (z-score) [13]: 0.318
glycan array binding signal (z-score) [14]: 1.2
glycan array binding signal (z-score) [15]: -1.28
glycan array binding signal (z-score) [16]: -0.819
glycan array binding signal (z-score) [17]: -1.03
glycan array binding signal (z-score) [18]: 2.1
glycan array binding signal (z-score) [19]: 1.1
glycan array binding signal (z-score) [20]: -0.621
glycan array binding signal (z-score) [21]: 0.392
glycan array binding signal (z-score) [22]: -0.73
glycan array binding signal (z-score) [23]: -0.819
glycan array binding signal (z-score) [24]: -0.426
glycan array binding signal (z-score) [25]: -0.407
glycan array binding signal (z-score) [26]: 0.506
glycan array binding signal (z-score) [27]: -0.035
glycan array binding signal (z-score) [28]: 0.924
glycan array binding signal (z-score) [29]: -0.587
glycan array binding signal (z-score) [30]: -0.112
